Results deposited as PubChem BioAssay AID1259291 (Sanger Institute, 2017).
Screen: 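Search for gene knock-downs that act synergistically alongside anchor drugs to kill cells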 (primary screen). Cell system: HT29 human colorectal cancer cells. Reagent: siRNA pool against human genes. Treatment: anchor drugs added a day after transfection: BYL719 at 1 µM, cetuximab at 5 µg/ml or trametinib at 10 nM, or DMSO vehicle alone. Detection: 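Replicate-averaged viability relative to non-targeting pool, robust z-score based on control wells, plus per-drug synergy score for 1 µM BYL719, 5 µg/ml cetuximab and 10 nM trametinib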. Direction: robust z-score, knock-down alone and viability, knock-down alone: higher = more viable cells; synergy score with BYL719 and synergy score with cetuximab and synergy score with trametinib: higher = stronger synergistic killing with drug. Hit rule: 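a knock-down alone scoring under -3 on robust z-score is called essential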. Calls: active = essential (knock-down alone); inactive = no change alone.
In all, the deposit lists 794 reagents; this is an unselected part. 15 of them (1.9%) were called active. 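Calls rest on knock-down alone; drug synergy scores do not affect them; drugs added a day post-transfection, DMSO vehicle as comparison.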 No viability above 1 is reported: the scale is capped. Reagent sequences are not shown. The record does not give: the amount of reagent, the time to read-out.

| target | PubChem SID | robust z-score, knock-down alone | viability, knock-down alone (fraction of control) | synergy score with BYL719 | synergy score with cetuximab | synergy score with trametinib | Call |
| --- | --- | --- | --- | --- | --- | --- | --- |
| RSKR (ribosomal protein S6 kinase related) | SID56478814 | 0.156 | 0.975 | -0.0928 | -0.0247 | -0.0755 | inactive |
| GRK3 (G protein-coupled receptor kinase 3) | SID135620814 | 0.552 | 1 | -0.136 | 0 | -0.00504 | inactive |
| CHD4 (chromodomain helicase DNA binding protein 4) | SID152156048 | -0.785 | 0.917 | 0.215 | 0.111 | 0.195 | inactive |
| PIK3C2A | SID152154179 | -2.13 | 0.834 | 0.0234 | 0.163 | 0.15 | inactive |
| CDC73 (cell division cycle 73) | SID134319235 | -1.36 | 0.881 | -0.0619 | 0.0241 | 0.0237 | inactive |
| PAK3 (p21 (RAC1) activated kinase 3) | SID56478716 | 0.552 | 1 | -0.12 | 0 | -0.202 | inactive |
| STK31 (serine/threonine kinase 31) | SID135620977 | 0.552 | 1 | 0.00763 | 0.0543 | 0.037 | inactive |
| CAMKK2 (calcium/calmodulin dependent protein kinase kinase 2) | SID135620895 | 0.552 | 1 | -0.158 | 0.0396 | -0.0316 | inactive |
| PRKAG2 (protein kinase AMP-activated non-catalytic subunit gamma 2) | SID135621825 | 0.552 | 1 | -0.0333 | 0 | -0.035 | inactive |
| ULK2 (unc-51 like autophagy activating kinase 2) | SID56479062 | 0.552 | 1 | -0.00808 | 0.0908 | 0.132 | inactive |
